Experiment [1] has as its target GST-GhA01EP1 (GST-GhA01EP1-pGS21T) (upland cotton (Gossypium hirsutum)). Briefly: pull-down; purified ALEU (SCPL35) protein incubated with GST-beads in combination with GST or GhA01EP1 for 4 h; washed three times with TNT Buffer; Western blot; both purified. (A western blot detects proteins with antibodies after separation by electrophoresis.)
The target of experiment [2] is GhA01EP1-GST (GhA01EP1-GST-p1301S) (upland cotton (Gossypium hirsutum)). The experiment is described as follows: co-IP; GhA01EP1-GST with ALEU-GFP or SCPL35-GFP expressed in tobacco leaves by Agrobacterium; protein extracted from leaf; Western blot with GST and GFP antibodies.

No constants are given. Whether binding was seen depends on the method and setting. Binding can be weak; no strength is given. Tags and fused reporters may be left off the sequences shown. For some assays here: In cells and extracts the contact can be indirect.

B1: His-TRX-SCPL35 (His-TRX-SCPL35-pET32T) (enzyme, UniProt Q9LEY1 21-480)
chain: RKPEKKVTISSSGRKEDDLVTGLPGQPPVNFKHYAGYVNLGPEQKQKALFYWFFEAQQNSSRRPLVLWLNGGPGCSSIAYGAAQELGPFLVHDNGGKLTYNHFSWNKEANMLFLEAPVGVGFSYTNNSMDLQKLGDEVTASDSLAFLINWFMKFPEFRSSEFYISGESYAGHYVPQLAEVIYDRNKKVTKDSSINLKGFMIGNAVINEATDMAGLVDYAWSHAIISDEVHTSIHGSCSFEEDTTNKTEQCYNNFKGFMDAYNDIDIYSIYTPVCLSSLLSSSPRKPKIVVSPRLLTFDDLWDKFPAGYDPCTESYAENYFNRKDVQVALHANVTNLPYPYSPCSGVIKRWSDAPSTMIPIIQKLLTGGLRIWIYSGDTDGRVPVTSTRYSIKKMGLKVESPWRSWFHKSQVAGWVETYAGGLNFVTVRGAGHQVPALAPAQSLTLFSHFISSVPLPSKRF
With B1, the binding result in experiment [1] is recorded as “binds”.

B2: SCPL35-GFP (SCPL35-GFP-p1301S) (enzyme, UniProt Q9LEY1 21-480)
chain: RKPEKKVTISSSGRKEDDLVTGLPGQPPVNFKHYAGYVNLGPEQKQKALFYWFFEAQQNSSRRPLVLWLNGGPGCSSIAYGAAQELGPFLVHDNGGKLTYNHFSWNKEANMLFLEAPVGVGFSYTNNSMDLQKLGDEVTASDSLAFLINWFMKFPEFRSSEFYISGESYAGHYVPQLAEVIYDRNKKVTKDSSINLKGFMIGNAVINEATDMAGLVDYAWSHAIISDEVHTSIHGSCSFEEDTTNKTEQCYNNFKGFMDAYNDIDIYSIYTPVCLSSLLSSSPRKPKIVVSPRLLTFDDLWDKFPAGYDPCTESYAENYFNRKDVQVALHANVTNLPYPYSPCSGVIKRWSDAPSTMIPIIQKLLTGGLRIWIYSGDTDGRVPVTSTRYSIKKMGLKVESPWRSWFHKSQVAGWVETYAGGLNFVTVRGAGHQVPALAPAQSLTLFSHFISSVPLPSKRF
With B2, the binding entry in experiment [2] was “binds”.

These data come from publication PMC12192239.
